# From PubChem BioAssay AID651595 (National Center for Advancing Translational Sciences (NCATS), 2012)
# Fewer than 10 of roughly 1,100 compounds were called active. Inconclusive results (about 6%) are left out. Calls follow the shape of the dose curve; as a rule, active = well fitted cell-killing curve with a large enough effect; inconclusive = small, poorly fitted or top-dose-only effect; inactive = flat fitted curve, though single readings scatter. Some of the results follow.
# Experiment: qHTS of Nrf2 Activators: Hit Validation in Cytotox Assay;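 also: compound exposure lasted 24 hours before the ATP readout; 0% is about no effect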
# Conditions: Cell viability counter-screen for Nrf2 activator hits; at 46.1 µM (top of the series)
# Description: Many diseases have some form of oxidative stress injury and ties to inflammation, causing a host of problems for the patient. The antioxidant response element (ARE) plays an important role in alleviating the harmful effects of oxidative stress. The antioxidant response element (ARE) is a transcriptional regulatory element involved in the activation of genes coding for a number of antioxidant proteins and detoxifying enzymes. These enzymes work in concert to protect tissues from oxidative insults and chemical toxicities in human hepatocytes and immune cells. The protective effects of ARE activation are primarily triggered through Nrf2 (NF-E2-related factor) binding to and activating AREs. It is known that Nrf2 controls the production of over 250 antioxidant and detoxification proteins (Hu et al., 2006), thereby protecting tissues by increasing cellular antioxidant content and suppressing inflammatory signaling pathways. The transcription factor Nrf2 is a central link between oxidative chemicals, such as phenolic antioxidants and electrophilic compounds, and the activation of ARE. Nrf2 levels are constitutively low as a consequence of its interaction with Keap1, which targets its degradation (Zipper and Mulcahy, 2002). Electrophiles react with key cysteine residues in Keap1, releasing Nrf2 and allowing its translocation to the nucleus. Once within the nucleus, Nrf2 complexes with coactivators such as p300, and binds to the AREs to induce gene transcription of cytoprotective enzymes, resulting in the prevention of toxicity. Activation of Nrf2 protects tissues by increasing cellular antioxidant content and suppressing inflammatory signaling pathways. Identifying novel and potent Nrf2 activators by using the AREc32 cell line to detect ARE activation by small molecules will lead to the identification and development of probes to study protective pathways in multiple tissues. These specific probes are essential to study the ARE pathway, and eventually to determine whether this pathway does activate genes that could protect against a host of diseases, including cardiovascular diseases, obesity, diabetes, Alzheimer's, and Parkinson's disease.
# This project's aim is to identify novel and potent Nrf2 activators by using the AREc32 cell line to detect ARE activation by small molecules, which will lead to the identification and development of probes to study the ARE pathway. Cytotoxic compounds are flagged as active, and inactivity is desired in this assay.
# NIH Chemical Genomics Center [NCGC]
# NIH Molecular Libraries Probe Centers Network [MLPCN]
# Assay Submitter (PI): Curtis Klaassen, University of Kansas Medical Center
# Cell viability after compound treatment was measured using a luciferase-coupled ATP quantitation assay (CellTiter-Glo, Promega) in AREc32_fluc cells. The change of intracellular ATP content indicates the number of metabolically competent cells after compound treatment. AREc32_fluc cells were harvested from T225 flask and resuspended in phenol red free OPTI-MEM medium with 5% FBS. Then 5 microL of 200,000 cells/ml resuspended cells was dispensed into each well of white, solid bottom, 1536-well tissue culture-treated plates using a Multidrop Combi dispenser. After overnight culture at 37 degrees C with 5% CO2, a total of 23 nL of compounds at 7 selected concentrations from the cherry pick or positive control (40 uM stock of CDDO-IM and 2 mM of tBHQ) in DMSO was transferred to each well of the assay plate using a pintool (Kalypsys, San Diego, CA), and the plates were further incubated at 37 degrees C with 5% CO2 for 24 hours. After that, 4 microL of CellTilter-GloTM luminescent substrate mix (Promega) was added to each well. The plate was incubated at room temperature for 30 minutes. The plates were measured on a ViewLux plate reader (PerkinElmer) with clear filter.
row,SMILES,"activity change, negative = cytotoxicity"
1,Fc1cccc(F)c1-c1nc(-c2ccc(Cl)cc2)no1,inactive: 0.737%
2,O=C(Nc1ccc(Cl)c(Cl)c1)c1ccco1,inactive: -1.46%
3,O=C(/C=C/c1ccccc1)c1c(O)n(CCc2ccccc2)c(=O)[nH]c1=O,inactive: 10.8%
4,Clc1ccccc1Nc1ncnc(-n2cccc2)n1,inactive: -0.699%
5,O=C1c2ccccc2-c2cc3ccccc3cc21,inactive: -15.3%
6,O=c1[nH]c(=S)[nH]c(O)c1N=Nc1ccc(S(=O)(=O)N2CCc3ccccc32)cc1,inactive: -9.45%
7,CC(=CCOc1ccc2ccc(=O)oc2c1)C1=CC(=O)C(C)(C)O1,inactive: 0.266%
8,CCOc1ccc(-n2c(O)c(N=Nc3ccc([N+](=O)[O-])cc3)c(=O)[nH]c2=O)cc1,inactive: 4.98%
9,CCCCn1c(O)c(C(=O)/C=C/c2ccc3c(c2)OCO3)c(=O)[nH]c1=O,inactive: -1.42%
10,O=C(O)c1ccc([N+](=O)[O-])c([N+](=O)[O-])c1,inactive: 13.5%
